Test results: the supplement of paper PMC12067093, “Discovery and optimisation of a covalent ligand for TRIM25 and its application to targeted protein ubiquitination” (Chemical Science, 2025)
The other results are listed elsewhere or left out.

compound: CC1Cc2ccccc2N1C(=O)C1CCCN(C1)C(=O)CCl (mixture of isomers) [TRIM25 ligand 11 (diastereomer mixture)]; assay: probe-labelled cysteine peptide fold change vs DMSO (competition) (log2 fold change); higher = less target engagement (more negative = stronger competition); conditions: 50 µM; THP-1; incubation time: 4 h
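Note: competitive chemoproteomic profiling in live THP-1 cells with an iodoacetamide desthiobiotin (IA-DTB) probe, comparing probe-labelled peptide intensities in compound-treated cells against DMSO-treated controls.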

Target | probe-labelled cysteine peptide fold change
EIF2D_P41214_271_TLQEQMDELLQQCFLHALK (UniProt P41214) | -0.0458
EDC4_Q6P2E9_4_ASCASIDIEDATQHLR (UniProt Q6P2E9) | 0.137
EDC3_Q96F86_477_IYLCDIGIPQQVFQEVGINYHSPFGCK (UniProt Q96F86) | 0.0231
EHD4_Q9H223_493+495_LADCDCDGMLDEEEFALAK (UniProt Q9H223) | -0.0896
EIF2S2_P20042_309_CSVASIK (UniProt P20042) | 0.0388
EEF2_P13639_536+557_SDPMVQCIIEESGEHIIAGAGELHLEICLK (UniProt P13639) | -0.0746
EIF3B_P55884_302_YWLEEAECRDQYSVIFESGDR (UniProt P55884) | 0.0705
EIF2S2_P20042_305_LYFLQCETCHSR (UniProt P20042) | 0.162
EDC4_Q6P2E9_838_ETCSTLAESPR (UniProt Q6P2E9) | -0.146
EFL1_Q7Z2Z2_124_ICDGCIIVVDAVEGVCPQTQAVLR (UniProt Q7Z2Z2) | 0.0324
EEF1A1_P68104_234_DGNASGTTLLEALDCILPPTRPTDKPLRLPLQDVYK (UniProt P68104) | -0.423
EHHADH_Q08426_623_CLYSLINEAFR (UniProt Q08426) | -0.045
EIF2A_Q9BY44_366_PVASDSTYFAWCPDGEHILTATCAPR (UniProt Q9BY44) | 0.316
EIF2S3_P41091_96+101_LDDPSCPRPECYR (UniProt P41091) | -0.104
EIF2B5_Q13144_618_YCALLLPLLK (UniProt Q13144) | 0.471
EEF1A1_P68104_234_DGNASGTTLLEALDCILPPTRPTDK (UniProt P68104) | 0.0256
EIF2AK4_Q9P2K8_46_QDHELQALEAIYGADFQDLRPDACGPVK (UniProt Q9P2K8) | 0.0073
EIF2B3_Q9NR50_424_DCLIGSGQR (UniProt Q9NR50) | -0.0485
ECT2_Q9H8V3_686_VETISLGEHPCDR (UniProt Q9H8V3) | -0.0735

A section from the list above, as a working copy:
Target | probe-labelled cysteine peptide fold change
EIF2S2_P20042_309_CSVASIK (UniProt P20042) | 0.0388
EEF2_P13639_536+557_SDPMVQCIIEESGEHIIAGAGELHLEICLK (UniProt P13639) | -0.0746

Later entries.

Target | probe-labelled cysteine peptide fold change
EEF1D_P29692_247_KLQIQCVVEDDKVGTDLLEEEITKFEEHVQSVDIAAFNK (UniProt P29692) | -0.0964
EHMT1_Q9H9B1_842_DAEGSTCLHLAAK (UniProt Q9H9B1) | -0.12
ECPAS_Q5VYK3_1638_IVAISCAADILK (UniProt Q5VYK3) | 0.182
EFTUD2_Q15029_144_TCFVDCLIEQTHPEIR (UniProt Q15029) | -0.0849
EEF2_P13639_557_SDPMVQCIIEESGEHIIAGAGELHLEICLK (UniProt P13639) | -0.13
EIF3A_Q14152_478_HCDLQVR (UniProt Q14152) | -0.063
EIF2B4_Q9UI10_69_GAEPETGSAVSAAQCQVGPTR (UniProt Q9UI10) | -0.226
EFTUD2_Q15029_144_TCFVDCLIEQTHPEIRK (UniProt Q15029) | -0.112
EED_O75530_330_SCENAIVCWKPGK (UniProt O75530) | -0.00525
EEF1D_P29692_217_SSILLDVKPWDDETDMAQLEACVR (UniProt P29692) | -0.0228
ECM1_Q16610_450_CCDLPFPEQACCAEEEK (UniProt Q16610) | 0.186
EHMT2_Q96KQ7_497_HHCCPGCGYFCTAGTFLECHPDFR (UniProt Q96KQ7) | 0.0286
EHMT1_Q9H9B1_978_EGETPLQCASLNSQVWSALQMSK (UniProt Q9H9B1) | 0.0915
EIF2S2_P20042_226_TSFVNFTDICK (UniProt P20042) | 0.0811
EEF2_P13639_136_VTDGALVVVDCVSGVCVQTETVLR (UniProt P13639) | -0.371
ECH1_Q13011_92_EMVECFNK (UniProt Q13011) | 0.0591
ECI1_P42126_173_YCIGLNETQLGIIAPFWLK (UniProt P42126) | -0.0708
EGLN1_Q9GZT9_42_SSFYCCK (UniProt Q9GZT9) | -0.074
